# Source: the supplement of paper PMC8728848
# The other results are listed elsewhere or left out.
# Columns and labels:
# Assay in all cases: glycan array binding signal (z-score within array); higher = stronger binding
# Settings in all cases: glycan notation: IUPAC condensed, linker removed
# [1] = biological target: GlcNAc(b1-2)[GlcNAc(b1-4)]Man(a1-3)[GlcNAc(b1-4)][GlcNAc(b1-2)[GlcNAc(b1-6)]Man(a1-6)]Man(b1-4)GlcNAc(b1-4)GlcNAc
# How it was run: (§1)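 Arrays were curated from the Consortium for Functional Glycomics database, 3228 in total, and kept only where the protein sequence was available. Binding is expressed as a within-array Z-score. This score was averaged across arrays of the same protein sequence at different concentrations or buffers and across linkers, and negative values can be read as non-binding.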
# [2] = biological target: GlcNAc(b1-2)[GlcNAc(b1-4)]Man(a1-3)[GlcNAc(b1-4)][GlcNAc(b1-2)[GlcNAc(b1-6)]Man(a1-6)]Man(b1-4)GlcNAc(b1-4)[Fuc(a1-6)]GlcNAc
# How it was run: as §1
# [3] = biological target: GlcNAc(b1-2)[GlcNAc(b1-6)]Man(a1-6)[GlcNAc(b1-2)Man(a1-3)]Man(b1-4)GlcNAc(b1-4)GlcNAc
# How it was run: as §1
# [4] = biological target: GlcNAc(b1-2)[GlcNAc(b1-6)]Man(a1-6)[GlcNAc(b1-2)Man(a1-3)]Man(b1-4)GlcNAc(b1-4)[Fuc(a1-6)]GlcNAc
# How it was run: as §1
# [5] = biological target: GlcNAc(b1-2)[GlcNAc(b1-6)]Man(a1-6)[GlcNAc(b1-4)][GlcNAc(b1-2)Man(a1-3)]Man(b1-4)GlcNAc(b1-4)GlcNAc
# How it was run: as §1
# GlcNAc(b1-3)Fuc = biological target: GlcNAc(b1-3)Fuc
# How it was run: as §1
# GlcNAc(b1-3)Gal = biological target: GlcNAc(b1-3)Gal
# How it was run: as §1
# [6] = biological target: GlcNAc(b1-3)Gal(b1-3)GalNAc
# How it was run: as §1
# GlcNAc(b1-3)Gal(b1-4)Glc = biological target: GlcNAc(b1-3)Gal(b1-4)Glc
# How it was run: as §1
# [7] = biological target: GlcNAc(b1-3)Gal(b1-4)GlcNAc
# How it was run: as §1
# [8] = biological target: GlcNAc(b1-3)Gal(b1-4)GlcNAc(b1-2)Man(a1-3)[GlcNAc(b1-3)Gal(b1-4)GlcNAc(b1-2)Man(a1-6)]Man(b1-4)GlcNAc(b1-4)GlcNAc
# How it was run: as §1
# [9] = biological target: GlcNAc(b1-3)Gal(b1-4)GlcNAc(b1-2)Man(a1-3)[GlcNAc(b1-3)Gal(b1-4)GlcNAc(b1-2)Man(a1-6)]Man(b1-4)GlcNAc(b1-4)[Fuc(a1-6)]GlcNAc
# How it was run: as §1
# [10] = biological target: GlcNAc(b1-3)Gal(b1-4)GlcNAc(b1-2)[GlcNAc(b1-3)Gal(b1-4)GlcNAc(b1-6)]Man(a1-6)[GlcNAc(b1-3)Gal(b1-4)GlcNAc(b1-2)Man(a1-3)]Man(b1-4)GlcNAc(b1-4)GlcNAc
# How it was run: as §1
# [11] = biological target: GlcNAc(b1-3)Gal(b1-4)GlcNAc(b1-3)Gal(b1-4)GlcNAc
# How it was run: as §1
# [12] = biological target: GlcNAc(b1-3)Gal(b1-4)GlcNAc(b1-3)Gal(b1-4)GlcNAc(b1-2)Man(a1-3)[GlcNAc(b1-3)Gal(b1-4)GlcNAc(b1-3)Gal(b1-4)GlcNAc(b1-2)Man(a1-6)]Man(b1-4)GlcNAc(b1-4)GlcNAc
# How it was run: as §1
# [13] = biological target: GlcNAc(b1-3)Gal(b1-4)GlcNAc(b1-3)Gal(b1-4)GlcNAc(b1-2)Man(a1-3)[GlcNAc(b1-3)Gal(b1-4)GlcNAc(b1-3)Gal(b1-4)GlcNAc(b1-2)Man(a1-6)]Man(b1-4)GlcNAc(b1-4)[Fuc(a1-6)]GlcNAc
# How it was run: as §1
# [14] = biological target: GlcNAc(b1-3)Gal(b1-4)GlcNAc(b1-3)Gal(b1-4)GlcNAc(b1-2)[GlcNAc(b1-3)Gal(b1-4)GlcNAc(b1-3)Gal(b1-4)GlcNAc(b1-6)]Man(a1-6)[GlcNAc(b1-3)Gal(b1-4)GlcNAc(b1-3)Gal(b1-4)GlcNAc(b1-2)Man(a1-3)]Man(b1-4)GlcNAc(b1-4)[Fuc(a1-6)]GlcNAc
# How it was run: as §1
# [15] = biological target: GlcNAc(b1-3)Gal(b1-4)GlcNAc(b1-3)Gal(b1-4)GlcNAc(b1-3)Gal(b1-4)GlcNAc(b1-2)Man(a1-3)[GlcNAc(b1-3)Gal(b1-4)GlcNAc(b1-3)Gal(b1-4)GlcNAc(b1-3)Gal(b1-4)GlcNAc(b1-2)Man(a1-6)]Man(b1-4)GlcNAc(b1-4)GlcNAc
# How it was run: as §1
# [16] = biological target: GlcNAc(b1-3)Gal(b1-4)GlcNAc(b1-3)Gal(b1-4)GlcNAc(b1-3)Gal(b1-4)GlcNAc(b1-2)Man(a1-3)[GlcNAc(b1-3)Gal(b1-4)GlcNAc(b1-3)Gal(b1-4)GlcNAc(b1-3)Gal(b1-4)GlcNAc(b1-2)Man(a1-6)]Man(b1-4)GlcNAc(b1-4)[Fuc(a1-6)]GlcNAc
# How it was run: as §1
# [17] = biological target: GlcNAc(b1-3)Gal(b1-4)GlcNAc(b1-3)Gal(b1-4)GlcNAc(b1-3)Gal(b1-4)GlcNAc(b1-2)[GlcNAc(b1-3)Gal(b1-4)GlcNAc(b1-3)Gal(b1-4)GlcNAc(b1-3)Gal(b1-4)GlcNAc(b1-6)]Man(a1-6)[GlcNAc(b1-3)Gal(b1-4)GlcNAc(b1-3)Gal(b1-4)GlcNAc(b1-3)Gal(b1-4)GlcNAc(b1-2)Man(a1-3)]Man(b1-4)GlcNAc(b1-4)[Fuc(a1-6)]GlcNAc
# How it was run: as §1
# [18] = biological target: GlcNAc(b1-3)Gal(b1-4)GlcNAc(b1-3)Gal(b1-4)GlcNAc(b1-3)Gal(b1-4)GlcNAc(b1-3)Gal(b1-4)GlcNAc(b1-2)Man(a1-3)[GlcNAc(b1-3)Gal(b1-4)GlcNAc(b1-3)Gal(b1-4)GlcNAc(b1-3)Gal(b1-4)GlcNAc(b1-3)Gal(b1-4)GlcNAc(b1-2)Man(a1-6)]Man(b1-4)GlcNAc(b1-4)GlcNAc
# How it was run: as §1
# [19] = biological target: GlcNAc(b1-3)Gal(b1-4)GlcNAc(b1-3)Gal(b1-4)GlcNAc(b1-3)Gal(b1-4)GlcNAc(b1-3)Gal(b1-4)GlcNAc(b1-2)Man(a1-3)[GlcNAc(b1-3)Gal(b1-4)GlcNAc(b1-3)Gal(b1-4)GlcNAc(b1-3)Gal(b1-4)GlcNAc(b1-3)Gal(b1-4)GlcNAc(b1-2)Man(a1-6)]Man(b1-4)GlcNAc(b1-4)[Fuc(a1-6)]GlcNAc
# How it was run: as §1
# [20] = biological target: GlcNAc(b1-3)Gal(b1-4)GlcNAc(b1-3)Gal(b1-4)GlcNAc(b1-3)Gal(b1-4)GlcNAc(b1-3)Gal(b1-4)GlcNAc(b1-2)[GlcNAc(b1-3)Gal(b1-4)GlcNAc(b1-3)Gal(b1-4)GlcNAc(b1-3)Gal(b1-4)GlcNAc(b1-3)Gal(b1-4)GlcNAc(b1-6)]Man(a1-6)[GlcNAc(b1-3)Gal(b1-4)GlcNAc(b1-3)Gal(b1-4)GlcNAc(b1-3)Gal(b1-4)GlcNAc(b1-3)Gal(b1-4)GlcNAc(b1-2)Man(a1-3)]Man(b1-4)GlcNAc(b1-4)[Fuc(a1-6)]GlcNAc
# How it was run: as §1
# [21] = biological target: GlcNAc(b1-3)Gal(b1-4)GlcNAc(b1-3)Gal(b1-4)GlcNAc(b1-3)GalNAc
# How it was run: as §1
# [22] = biological target: GlcNAc(b1-3)Gal(b1-4)GlcNAc(b1-3)GalNAc
# How it was run: as §1
# [23] = biological target: GlcNAc(b1-3)Gal(b1-4)GlcNAc(b1-3)[GlcNAc(b1-3)Gal(b1-4)GlcNAc(b1-3)]GalNAc
# How it was run: as §1
# [24] = biological target: GlcNAc(b1-3)Gal(b1-4)GlcNAc(b1-6)[Gal(b1-3)]GalNAc
# How it was run: as §1
# [25] = biological target: GlcNAc(b1-3)Gal(b1-4)GlcNAc(b1-6)[GlcNAc(b1-3)Gal(b1-3)]GalNAc
# How it was run: as §1
# [26] = biological target: GlcNAc(b1-3)Gal(b1-4)GlcNAc(b1-6)[GlcNAc(b1-3)]Gal(b1-4)GlcNAc
# How it was run: as §1
# GlcNAc(b1-3)GalNAc = biological target: GlcNAc(b1-3)GalNAc
# How it was run: as §1
# GlcNAc(b1-3)Man = biological target: GlcNAc(b1-3)Man
# How it was run: as §1
# [27] = biological target: GlcNAc(b1-3)[GlcNAc(b1-4)][GlcNAc(b1-6)]GlcNAc
# How it was run: as §1
# [28] = biological target: GlcNAc(b1-3)[GlcNAc(b1-6)]Gal(b1-4)GlcNAc
# How it was run: as §1
# [29] = biological target: GlcNAc(b1-3)[GlcNAc(b1-6)]GalNAc
# How it was run: as §1
# [30] = biological target: GlcNAc(b1-4)Gal(b1-4)GlcNAc
# How it was run: as §1
# GlcNAc(b1-4)GlcNAc = biological target: GlcNAc(b1-4)GlcNAc
# How it was run: as §1
# [31] = biological target: GlcNAc(b1-4)GlcNAc(b1-4)GlcNAc
# How it was run: as §1
# [32] = biological target: GlcNAc(b1-4)GlcNAc(b1-4)GlcNAc(b1-4)GlcNAc(b1-4)GlcNAc
# How it was run: as §1
binder,measurement,setting,value
RobpsCRA (Robinia pseudoacacia) (protein) IKGGYWYSGSGLAVSDINPSHFTHLFCAFADLDPNTNKLTISSSNAAAFSTFTQTVRAKNPSVKTLLSIGGGGGRALAAVFANMASQASRRKSFIDSSIQLARRNNFHGLDLDWEYPSSDIDKTNFASLIREWRAAVATESSTSGTPALLLSAAVGGSDQITPLKYYPGEAIANNLDWVNVMTYDLYTSDSYPTLTQPPAPLFYPRGIFSADEGITKWIQSGVPESKLALGLPFYGFKWRLSDPNNHGLFAPATQGLGAVKYKDIVNTGGQVEFDSTYVTNYCFKGTDWYGYDDTQSISAKVAYAKQRGLFGYFAWHIEQDSNWALS,glycan array binding signal (z-score),[1],-0.105
same,glycan array binding signal (z-score),[2],0.837
same,glycan array binding signal (z-score),[3],0.227
same,glycan array binding signal (z-score),[4],-0.106
same,glycan array binding signal (z-score),[5],-0.019
same,glycan array binding signal (z-score),GlcNAc(b1-3)Fuc,-0.426
same,glycan array binding signal (z-score),GlcNAc(b1-3)Gal,0.331
same,glycan array binding signal (z-score),[6],0.17
same,glycan array binding signal (z-score),GlcNAc(b1-3)Gal(b1-4)Glc,-0.681
same,glycan array binding signal (z-score),[7],0.602
same,glycan array binding signal (z-score),[8],-0.142
same,glycan array binding signal (z-score),[9],0.229
same,glycan array binding signal (z-score),[10],1.5
same,glycan array binding signal (z-score),[11],0.172
same,glycan array binding signal (z-score),[12],0.567
same,glycan array binding signal (z-score),[13],0.104
same,glycan array binding signal (z-score),[14],1.11
same,glycan array binding signal (z-score),[15],0.549
same,glycan array binding signal (z-score),[16],0.895
same,glycan array binding signal (z-score),[17],0.346
same,glycan array binding signal (z-score),[18],-0.064
same,glycan array binding signal (z-score),[19],-0.454
same,glycan array binding signal (z-score),[20],1.28
same,glycan array binding signal (z-score),[21],-0.291
same,glycan array binding signal (z-score),[22],-0.874
same,glycan array binding signal (z-score),[23],0.089
same,glycan array binding signal (z-score),[24],0.859
same,glycan array binding signal (z-score),[25],0.16
same,glycan array binding signal (z-score),[26],-0.361
same,glycan array binding signal (z-score),GlcNAc(b1-3)GalNAc,-0.205
same,glycan array binding signal (z-score),GlcNAc(b1-3)Man,-0.583
same,glycan array binding signal (z-score),[27],0.848
same,glycan array binding signal (z-score),[28],0.108
same,glycan array binding signal (z-score),[29],-0.507
same,glycan array binding signal (z-score),[30],-0.76
same,glycan array binding signal (z-score),GlcNAc(b1-4)GlcNAc,-0.199
same,glycan array binding signal (z-score),[31],0.264
same,glycan array binding signal (z-score),[32],0.011

# Reformatted: entries from further up
binder | measurement | setting | value
RobpsCRA (Robinia pseudoacacia) (protein) IKGGYWYSGSGLAVSDINPSHFTHLFCAFADLDPNTNKLTISSSNAAAFSTFTQTVRAKNPSVKTLLSIGGGGGRALAAVFANMASQASRRKSFIDSSIQLARRNNFHGLDLDWEYPSSDIDKTNFASLIREWRAAVATESSTSGTPALLLSAAVGGSDQITPLKYYPGEAIANNLDWVNVMTYDLYTSDSYPTLTQPPAPLFYPRGIFSADEGITKWIQSGVPESKLALGLPFYGFKWRLSDPNNHGLFAPATQGLGAVKYKDIVNTGGQVEFDSTYVTNYCFKGTDWYGYDDTQSISAKVAYAKQRGLFGYFAWHIEQDSNWALS | glycan array binding signal (z-score) | GlcNAc(b1-3)Fuc | -0.426
same | glycan array binding signal (z-score) | GlcNAc(b1-3)Gal | 0.331
